These are yes or no findings as the source states them, for the method shown. Some results given as binding are weak or reduced against the parent protein; the word gives no strength.
Biological target: Collagen I (UniProt P02454)
Assay: fluorescence imaging of labelled protein on a protein-coated hydrogel; collagen I covalently linked (Sulfo-SANPAH) to a 30 kPa polyacrylamide gel; gel stained with rhodamine-labeled soluble vimentin; uncoated gel as control; both purified

Amino acid sequences for entries named in this document (tags omitted). A change or cut given only in a name is not applied to a line headed by its entry.
UniProt P02454: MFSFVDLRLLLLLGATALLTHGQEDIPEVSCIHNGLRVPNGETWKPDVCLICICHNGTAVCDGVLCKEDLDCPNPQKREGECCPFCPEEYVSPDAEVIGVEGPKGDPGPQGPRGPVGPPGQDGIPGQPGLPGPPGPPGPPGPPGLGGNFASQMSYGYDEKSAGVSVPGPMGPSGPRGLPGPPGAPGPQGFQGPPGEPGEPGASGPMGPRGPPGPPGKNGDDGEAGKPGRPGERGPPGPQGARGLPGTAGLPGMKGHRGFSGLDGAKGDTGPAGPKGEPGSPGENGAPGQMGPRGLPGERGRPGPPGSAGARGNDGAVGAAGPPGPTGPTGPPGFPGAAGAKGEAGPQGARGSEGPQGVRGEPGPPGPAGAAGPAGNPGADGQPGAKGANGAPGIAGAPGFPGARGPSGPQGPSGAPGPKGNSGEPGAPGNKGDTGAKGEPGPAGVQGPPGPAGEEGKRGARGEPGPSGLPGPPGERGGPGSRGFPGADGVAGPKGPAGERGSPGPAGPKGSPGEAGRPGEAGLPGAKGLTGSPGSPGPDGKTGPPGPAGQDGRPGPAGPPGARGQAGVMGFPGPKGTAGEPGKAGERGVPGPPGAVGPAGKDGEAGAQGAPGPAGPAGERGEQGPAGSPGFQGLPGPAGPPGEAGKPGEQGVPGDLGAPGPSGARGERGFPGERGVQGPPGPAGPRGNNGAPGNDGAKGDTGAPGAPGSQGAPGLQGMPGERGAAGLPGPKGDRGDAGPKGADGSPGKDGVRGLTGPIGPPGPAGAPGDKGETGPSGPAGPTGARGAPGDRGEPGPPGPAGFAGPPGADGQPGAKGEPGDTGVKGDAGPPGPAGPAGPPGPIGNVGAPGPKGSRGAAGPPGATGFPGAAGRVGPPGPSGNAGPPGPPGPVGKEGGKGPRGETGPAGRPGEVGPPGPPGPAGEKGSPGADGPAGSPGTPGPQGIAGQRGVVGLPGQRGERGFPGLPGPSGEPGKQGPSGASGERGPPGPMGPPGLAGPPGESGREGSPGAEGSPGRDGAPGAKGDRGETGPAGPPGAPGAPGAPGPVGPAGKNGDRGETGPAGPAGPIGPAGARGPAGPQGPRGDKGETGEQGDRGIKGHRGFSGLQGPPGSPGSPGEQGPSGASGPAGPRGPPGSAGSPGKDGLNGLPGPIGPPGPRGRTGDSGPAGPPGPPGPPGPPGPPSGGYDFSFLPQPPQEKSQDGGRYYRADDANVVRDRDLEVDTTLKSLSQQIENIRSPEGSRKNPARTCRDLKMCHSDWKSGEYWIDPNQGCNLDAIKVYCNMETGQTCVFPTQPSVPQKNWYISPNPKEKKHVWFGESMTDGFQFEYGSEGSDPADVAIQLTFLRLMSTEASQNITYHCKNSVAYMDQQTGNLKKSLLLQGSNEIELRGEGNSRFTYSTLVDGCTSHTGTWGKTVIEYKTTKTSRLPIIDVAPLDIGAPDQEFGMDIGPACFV
UniProt P08670: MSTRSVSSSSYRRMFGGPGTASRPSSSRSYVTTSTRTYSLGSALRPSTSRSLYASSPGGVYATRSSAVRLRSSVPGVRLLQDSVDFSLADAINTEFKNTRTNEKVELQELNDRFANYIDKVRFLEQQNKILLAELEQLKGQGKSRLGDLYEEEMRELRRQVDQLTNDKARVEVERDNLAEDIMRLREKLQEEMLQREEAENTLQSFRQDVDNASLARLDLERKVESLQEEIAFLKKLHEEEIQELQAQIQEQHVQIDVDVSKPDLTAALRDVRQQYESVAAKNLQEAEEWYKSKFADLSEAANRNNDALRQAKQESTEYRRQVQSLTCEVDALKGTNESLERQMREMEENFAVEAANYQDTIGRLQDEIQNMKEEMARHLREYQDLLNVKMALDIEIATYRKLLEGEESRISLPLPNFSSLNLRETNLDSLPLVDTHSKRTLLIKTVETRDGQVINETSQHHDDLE

binding: binds
Substance: Rhodamine-labeled vimentin (from UniProt P08670 1-466)
